Small-molecule microarray binding calls

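The test is a small-molecule microarray: each compound is printed twice on a reactive slide, and binding shows as fluorescence of the labelled oligonucleotide after washing. For the PreQ1, TPP and SAM-II riboswitches the laboratory earlier reported (doi:10.1038/s41467-019-09493-3) 1 µM RNA, 2 h, and a rule that included a mean Z-score above 3 (spot signal-to-noise against the whole library), a score well above that on a control array, and duplicate spots agreeing (coefficient of variation under 100). The data file gives only the calls; its cut-offs may differ, and compounds hitting several targets are kept. A missing hit is not proof of no binding, and a hit is not a measured affinity.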 Key: active = hit, inactive = tested without a hit. This is an unselected part of the compounds tested. A target missing from an entry has no call listed here. A dash means that no call is listed here.

Targets (5′ to 3′):
T1: PreQ1 riboswitch RNA pseudoknot, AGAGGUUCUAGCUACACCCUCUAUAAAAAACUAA. From B. subtilis. About 24,000 compounds screened, about 170 hits.
T2: TPP riboswitch RNA three-way junction, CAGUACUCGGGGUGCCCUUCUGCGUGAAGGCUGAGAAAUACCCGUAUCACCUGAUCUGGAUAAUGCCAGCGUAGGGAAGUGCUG. About 24,000 compounds screened, about 160 hits.
T3: SAM-II riboswitch RNA pseudoknot, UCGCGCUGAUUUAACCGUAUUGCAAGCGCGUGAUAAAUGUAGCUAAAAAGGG. About 21,000 compounds screened, about 200 hits.

SMILES,T1,T2,T3
CNC(=O)Nc1ccc(S(N)(=O)=O)cc1,inactive,inactive,inactive
Cc1cc(OCC(O)Cn2c(C)nc3ccccc32)ccc1Cl (centres unmarked),inactive,inactive,-
COc1ccc(-n2nc(C)nc2-c2cccc(N)c2)cc1,inactive,inactive,inactive
Cc1cc(Nc2ccccc2F)n2nc(-c3ccccc3C)nc2n1,inactive,inactive,-
Cc1ccc2c(c1)sc1nncn12,inactive,inactive,inactive
N[C@@H]1CC[C@H](C(=O)NCc2ccc(-n3cccn3)cc2)C1,inactive,inactive,inactive
COCCCN[C@H]1CS(=O)(=O)C[C@@H]1S(=O)(=O)c1ccc(C)cc1,inactive,inactive,-
CCOC(=O)c1c(N)sc(C(=O)Nc2cc(C)ccc2C)c1C,inactive,inactive,inactive
NC(=O)c1ccc(Cl)c2ccccc12,inactive,inactive,inactive
Nc1nonc1-n1nnc2c1CCCC2=O,inactive,inactive,inactive
CCCCNC1=C(C(N)=O)S(=O)(=O)c2ccccc21,inactive,inactive,-
CCSc1nc(N)c2c3c(sc2n1)CN(Cc1ccccc1)CC3,inactive,inactive,inactive
CC(=O)N1C[C@H](NC(=O)c2ccnc(N)c2)[C@@H](C(C)C)C1,inactive,inactive,inactive
COc1cc2c(=O)n3c4c(cccc4c2cc1OC)CC3,inactive,inactive,inactive
Cc1oc(C)c2c(=O)ccc3c(c12)OC(N)=C(C#N)C3c1ccccc1F (centres unmarked),inactive,inactive,inactive
Cl.Cl.c1ccc2[nH]c(SCCNC3C4CC5CC(C4)CC3C5)nc2c1 (centres unmarked),inactive,inactive,inactive
COc1cccc(C2C(C#N)=C(N)Oc3c2c(=O)oc2ccccc32)c1 (centres unmarked),inactive,inactive,inactive
O=C(NNC(=O)c1ccc(CNS(=O)(=O)c2ccc(F)c(Cl)c2)cc1)c1ccccc1,inactive,inactive,inactive
COc1ccc2cc1Oc1ccc(cc1)C[C@H]1c3cc(c(OC)cc3CCN1C)Oc1c(OC)c(OC)cc3c1[C@H](C2)N(C)CC3,inactive,inactive,inactive
Cn1c(=O)c(=O)n(C)c2cc(N)ccc21,inactive,inactive,inactive
CN(Cc1cc(-c2ccccn2)no1)C(=O)C1CC2(CCNCC2)CN1C (centres unmarked),inactive,inactive,inactive
Cc1ccc2c(c1)c(CNC(C)Cn1ccnc1)nn2C (centres unmarked),inactive,inactive,inactive
CCOc1ccc(C(C)=O)cc1NC(=O)N[C@@H](CO)Cc1ccc(O)cc1,inactive,inactive,inactive
CCOC(=O)C1CCCN(c2c(Nc3ccc(C)c(C)c3)c(=O)c2=O)C1 (centres unmarked),inactive,inactive,-
N#Cc1cccnc1N1CCC(NCc2nc(-c3ccco3)no2)CC1,inactive,inactive,inactive
Cn1c(=O)c(F)c(Nc2ccc(I)cc2F)c2c(=O)n(C[C@@H](O)CO)cnc21,inactive,inactive,inactive
COc1cc(/N=N/c2ccccc2C(=O)O)ccc1O,inactive,inactive,inactive
Nc1nonc1C(=O)OCC(=O)Nc1ccccc1,inactive,inactive,inactive
CNCc1nc2ccccc2n1CCCCOc1ccc(C)cc1,inactive,inactive,inactive
Cc1ccc(C(=O)c2c(N)c(C(=O)Nc3cccc(C(F)(F)F)c3)c3ccccn23)cc1,inactive,inactive,-
COCCNCc1ccc(-c2cccc(C(F)(F)F)c2)o1,inactive,inactive,-
Cc1cccnc1NC(=S)Nc1ncccc1C,inactive,active,active
COc1cc2c(c(OC)c1OC)-c1ccc(OC)c(=O)cc1[C@@H](NC(C)=O)CC2,inactive,inactive,inactive
CN(Cc1ccc2nsnc2c1)C(=O)C1NCCc2[nH]cnc21 (centres unmarked),inactive,inactive,inactive
COc1ccc(-c2cc3nc(C)cc(NC4CCCCC4)n3n2)cc1OC,inactive,inactive,-
CNc1nccc(-c2cccnc2Oc2cc(C(=O)Nc3cccc(C(F)(F)F)c3)ccc2C)n1,inactive,inactive,inactive
CC1Cc2cc(Cn3ccnc3-c3cc4n(n3)CCCNC4)ccc2O1 (centres unmarked),inactive,inactive,inactive
N#Cc1c(N)c2c(c3c1CCCC3)CCCC2,inactive,inactive,inactive
CC(C)n1cnc2cc(NCc3nc4ccccc4n3C)ccc21,inactive,inactive,inactive
CN(C)c1ncc(CN2CCCC3(CCC(=O)N(CCCO)C3)C2)s1 (centres unmarked),inactive,inactive,inactive
CCOC(=O)c1c(N)n(Cc2ccccc2)c2nc3ccccc3nc12,inactive,inactive,inactive
O=C1c2c(O)cc(O)cc2O[C@H](c2cc(O)c(O)c(O)c2)[C@H]1O,inactive,inactive,inactive
O=C(c1ccc2nnnn2c1)N1CCC(C(O)Cc2ccccc2)CC1 (centres unmarked),inactive,inactive,inactive
Cc1c(C)n(Cc2ccc(-c3ccccc3C(=O)O)cc2)c2ccc(C(=O)N[C@@H](C)c3ccc([N+](=O)[O-])cc3)cc12,inactive,inactive,inactive
COCc1cc(C)nc2sc(-c3nnc(-c4ccccc4)o3)c(N)c12,inactive,inactive,inactive
CNCC(=O)N1C[C@@H]2C[C@H]1C(=O)N2c1cc(-c2ccccc2)ccc1OC,inactive,inactive,inactive
Cc1ccc2c(c1)c(CNC(=O)c1cn(CCN)nn1)nn2C,inactive,inactive,inactive
Nc1cc(-c2ccccc2)nn1S(=O)(=O)c1ccc(F)cc1,inactive,inactive,inactive
COC(=O)C1=C(N)OC2=C(C(=O)CCC2)C1c1cc(CN2CCOCC2)c(C)s1 (centres unmarked),inactive,inactive,inactive
c1ccc2c(c1)CCOC2Cn1ccnc1-c1cc2n(n1)CCCNC2 (centres unmarked),inactive,inactive,inactive
O=C(Oc1cccc(NC2=NS(=O)(=O)c3ccccc32)c1)c1ccccc1Cl,inactive,inactive,inactive
CCOC(=O)CN1CCC2(CCN(Cc3cn(C)nc3C)CC2)C(CO)C1 (centres unmarked),inactive,inactive,inactive
NC(=O)Cc1nc(-c2ccc3c(c2)ncn3CCO)n(C2CCCCC2)n1,inactive,inactive,inactive
Cc1ccccc1NC(=O)Cn1nnc(C(=O)NCCc2ccccc2)c1N,inactive,inactive,inactive

6 of the entries, repeated:

- CC(=O)N1C[C@H](NC(=O)c2ccnc(N)c2)[C@@H](C(C)C)C1 | T1: inactive; T2: inactive; T3: inactive
- Cc1cc(Nc2ccccc2F)n2nc(-c3ccccc3C)nc2n1 | T1: inactive; T2: inactive
- Cn1c(=O)c(=O)n(C)c2cc(N)ccc21 | T1: inactive; T2: inactive; T3: inactive
- Nc1nonc1-n1nnc2c1CCCC2=O | T1: inactive; T2: inactive; T3: inactive
- NC(=O)c1ccc(Cl)c2ccccc12 | T1: inactive; T2: inactive; T3: inactive
- COc1ccc(-n2nc(C)nc2-c2cccc(N)c2)cc1 | T1: inactive; T2: inactive; T3: inactive

Calls as published in the ROBIN set (doi:10.1002/anie.202211358).